{
  "sequences": {"note": "Amino acid sequences for entries named in this document (tags omitted).", "UniProt Q9MZ16": "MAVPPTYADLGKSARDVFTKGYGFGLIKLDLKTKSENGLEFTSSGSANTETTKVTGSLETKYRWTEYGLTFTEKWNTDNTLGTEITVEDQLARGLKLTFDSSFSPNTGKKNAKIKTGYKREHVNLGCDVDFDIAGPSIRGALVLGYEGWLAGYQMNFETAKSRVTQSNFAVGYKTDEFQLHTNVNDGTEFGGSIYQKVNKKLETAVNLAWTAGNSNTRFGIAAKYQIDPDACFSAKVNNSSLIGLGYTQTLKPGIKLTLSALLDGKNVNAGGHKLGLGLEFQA"},
  "source": "paper PMC10746205",
  "target": "voltage-dependent anion channel 1, endogenous in porcine lung (pig (endogenous in porcine lung)) (UniProt Q9MZ16)",
  "experiment": "cross-linking; VDAC1 oligomerization assay: lung tissue of mock-infected or PRRSV-infected pigs; pellets in CHAPS buffer with 2 mM DSS, 37°C, 20 min; SDS-PAGE and immunoblotting",
  "note": "No constants are given. Whether binding was seen depends on the method and setting. Binding seen in cells or lysates may run through a third protein. Some entries that bind do so weakly or less than the wild type.",
  "data": [
    {"substance": "voltage-dependent anion channel 1, endogenous in porcine lung (from UniProt Q9MZ16 1-283)", "values": [
      {"measurement": "binding", "value": "binds"}
    ]}
  ]
}
